Assay results published in the supplement of paper PMC5949888.
Most values lie at the floor of the assay. Slopes are relative: functional sequences can read slightly below zero.

Tested on: Saccharomyces cerevisiae PS128 hsf1 delta, HSF1(1-493) fusion
Test: growth estimate (transactivation domain function in HSF1 fusion, heat-shock survival) (a.u. (slope of normalised read count over time)); higher = stronger growth at 37°C, i.e. more transactivation activity
Conditions: library: random library

Substance	growth estimate
WYSRGRNWLLDHCNRCPVSA	< -0.25
RFFLRRLRDGEVQRGGLFCG	< -0.25
LHSGKSGSSEVQLTFTAHRH	< -0.25
RNVTKT	< -0.25
RRRTLVSGIPWVINRGFIAD	< -0.25
LELLLIRHHRMCNLEVPC	< -0.25
VPNL	< -0.25
KNQRIIGRSRLDRSAANAYT	< -0.25
LWEAINRPEEPVESLGLCLV	< -0.25
PESAAACDGAI	< -0.25
PCLLTVGSDVAKCRTPDKDS	< -0.25
YVWIHC	< -0.25
KVGGVKKCPQGCHYLQLILF	< -0.25
LFSKS	< -0.25
VLGLPA	< -0.25
RHSEI	< -0.25
GPRNHRSKV	< -0.25
VITYS	< -0.25
ETLHSV	< -0.25
DSTVRVKQSQEYVTD	< -0.25
TGDKWQAAQNKSLGQAPHLC	< -0.25
RELEFRHHQAR	< -0.25
CTWDAMSVWFGKGATSEGCR	< -0.25

Part of the list above, in markdown.

| Substance | growth estimate |
| --- | --- |
| VLGLPA | < -0.25 |
| RHSEI | < -0.25 |
| GPRNHRSKV | < -0.25 |
| VITYS | < -0.25 |
| ETLHSV | < -0.25 |

Following part.

Substance	growth estimate
LASLRLPFCVHRTVTTRTAT	< -0.25
REA	< -0.25
ACLVARILEGGPLLMRAQ	< -0.25
ERKRRPEGIPRLSLAGSVHM	< -0.25
PTRRSSVLQIVCGHVFFRVA	< -0.25
HGNGFGYRGRQVSPWAKSVR	< -0.25
ARLL	< -0.25
CRVQGNDVRGAGVVCVRQ	< -0.25
GGIRQRYVRRYGT	< -0.25
CGLAWWHRRVVWAVKKLQNW	< -0.25
DPCTGSARGGTGEVVLVSRP	< -0.25
LSHILSLYNTLTGGRGRGTF	< -0.25
HTVGNELPKEGSSDNAFLRS	< -0.25
LRSRLQ	< -0.25
VRTSQLSG	< -0.25
TLNGQRTQR	< -0.25
IPPCEGP	< -0.25
VGSMTGWTASDLL	< -0.25
LTEVPAVL	< -0.25
KSSTPPLSRFYNSPSDAAFL	< -0.25
LESAVSVIAGSRVGLGTALS	< -0.25
EHICCLLVSHREISECNGSA	< -0.25
YASGWIPDGMRESLSVFAVC	< -0.25

Substance	growth estimate
CTPAGWMCGVSST	< -0.25
STSRSSTS	< -0.25
SAALSQFDRGAVLDILFVGT	-0.189
RIAEGRNVSLYVAFGS	< -0.25
YKGHTTF	< -0.25
NVQTAPPVQQ	< -0.25
SPTRAGLAAHPSH	< -0.25
NNTPGV	< -0.25
LHINQVGTYLAARL	< -0.25
KNRASHCRVNYSGISIA	< -0.25
PHCSTRSW	< -0.25
SYIEIRVPNVKY	< -0.25
YLEQRMQSEAHM	< -0.25
RKERLQRVFSVNLFGCP	< -0.25
EFGQLSPKGSNKNWWMDRKQ	-0.237
LAAGE	< -0.25
LVGFCVDWR	< -0.25
GVADQQVQRAALTPPKDVSV	< -0.25
QSS	< -0.25
AEETHPHYINGGGARRGQRG	< -0.25
RYVLIVVESRYLTRGV	< -0.25
PEWSVLILNVRDQTMRFWYT	-0.167
IFSLVPRLIFRVVARSVRLV	< -0.25

Substance	growth estimate
RVELLSTRPYEASSLDRSEV	< -0.25
RLRS	< -0.25
YPRARPPTTD	< -0.25
TLDGYLEVMSGFTLRVSPQP	< -0.25
VSIQNGRAACIWVSYCRSRA	< -0.25
LEPVGGSV	-0.0166
SRNV	< -0.25
FVEYP	< -0.25
VSILADKFGERLCGVLPGIT	< -0.25
QKIIARPLRLYLY	< -0.25
IDGRATVQVRSVALETTTRS	< -0.25
FTGQR	< -0.25
RVTESESKSQRCEPEDMLVC	< -0.25
IWWRVAS	< -0.25
HRGQSPTLEVIYTSPTAGDR	< -0.25
DCCFHCGRIEPGVIISDAFH	< -0.25
LWNSQWASSHAAFDLGREST	< -0.25
NGSRWMSSAYSPRPMASVGD	< -0.25
AGWDRA	< -0.25
VCPFVLPESEELG	< -0.25
RRKFSVKRTALTGGGRPLFE	< -0.25
GSYVKKS	< -0.25
QLCEGRSEPGRQAGYIM	< -0.25

Substance	growth estimate
SSLP	< -0.25
RDKNFSSAVHEGVRLAFVQS	< -0.25
PRGFTHAKKAKF	< -0.25
MFVFYSRDRFRHLYVRTTDV	< -0.25
ISDDLGALLLSY	< -0.25
GGYSCLNTRYWD	< -0.25
KVVSFGGGVGV	< -0.25
PRECRAEEPFVGG	< -0.25
SAGFPV	< -0.25
TQMVRIEGVSVRGTVP	< -0.25
MKLDHELRTQVGNPLHFADR	< -0.25
GPRPRGGLCWKARIRLCSMP	< -0.25
MIVKTIVGLRPRPYPGLLKH	< -0.25
IPHGGLRSGRKPGCRLVQAT	< -0.25
DPVRNYNLKHGTPVAIGFAS	-0.246
LSRQCPT	< -0.25
QLNVIDRRRRDHSCCNIRVL	< -0.25
TTHLSEE	< -0.25
GLRLGG	< -0.25
PKSTAYMAGPVTCRGVL	< -0.25
EMAGTSSCPCRGGHLYDRTC	< -0.25
TLDGCVKSTFPGPRPPKDDP	< -0.25
VPDCAYYYYKYM	< -0.25

Substance	growth estimate
TQYKRMTAGFLGSRSCYTQQ	< -0.25
VPCGYDLGGPHGFLCEKDVV	< -0.25
AICTGNCFCRCDSC	-0.243
MCVQLQWAGLWGVHG	< -0.25
LEQASTLRWASRVRGGLASN	< -0.25
VYTYCVYAEVRARYRLLWTM	< -0.25
GPVKSSISHALLRGKNDGSS	< -0.25
KQTISSVKEFGLPHVH	< -0.25
LYPDPQSMGRNHLDHGCQIL	< -0.25
ESGFCDSGNETVFTLSLIGY	< -0.25
LLPSLAAQLEGASARSGRNA	< -0.25
NRTGTRLSRRPMDHRPSDTF	< -0.25
LRPMEGRSAPLARTAKYACV	-0.246
ARAGEYVKK	< -0.25
RWIELAIRNTHVAGHSSGAL	< -0.25
GGSSVCCNSPSAERRGESHL	< -0.25
SLSCKSASLCGSPANAGASG	< -0.25
IPHLFRACCDRRCCP	< -0.25
VSRQGS	< -0.25
RRGSEACGTLPD	< -0.25
SLYSGERKYGRFTWSAVRWG	< -0.25
VCTSLF	< -0.25
IWVSFACITIFSRGPYPFG	< -0.25

Three records drawn at random from those above, as already listed:
Substance	growth estimate
DPCTGSARGGTGEVVLVSRP	< -0.25
CRVQGNDVRGAGVVCVRQ	< -0.25
RNVTKT	< -0.25

Carrying on.

Substance	growth estimate
KTVLFIRKLVPSTIFINEET	< -0.25
PQRHCINAIPRTCSENFPLS	< -0.25
TEQYYESRDHLSVPQMRAAA	< -0.25
SQAQENREQVLC	< -0.25
LPFGLGVVRPAIGSFNPNEY	< -0.25
LRTYIS	< -0.25
SVLSVRSVSRLTIFGEPYVH	< -0.25
PGGTSNLGRTIAKMSLYSYP	< -0.25
GKISCWRLCRDGMAYAGYHN	< -0.25
AQSDASVVMVFLTFLVCFRG	< -0.25
ILNTEDY	< -0.25
VGI	< -0.25
RCLLLRHNCSQGDLGY	< -0.25
YAISSSGPSGVVDIS	< -0.25
LSGATRR	< -0.25
RVNYRGWF	< -0.25
HRMNNFHYRWHL	-0.218
ITIFLYDAS	< -0.25
IARRKTREIFPQSS	< -0.25
HDSAVSLGALTE	< -0.25
